From PMC5524640, “Evasion of immunosurveillance by genomic alterations of PPARγ/RXRα in bladder cancer” (Nature Communications, 2017)
Numbering of substitutions follows the chain as printed. In names and notes the source's numbering stands. These are yes or no findings as the source states them, for the method shown. Values belong to the binder of their own block, whether it stands above or below them.

Legend:
[1] = target: T1, His-TEV-RXRα-S427F (223-462) (Homo sapiens (Human), UniProt P19793); experiment: SEC; analytical, 10/300 Superdex 200; equivalent molar volumes loaded; heterodimer formed by mixing the two proteins at a 1:1 molar ratio; no ligand; both purified
T1 chain: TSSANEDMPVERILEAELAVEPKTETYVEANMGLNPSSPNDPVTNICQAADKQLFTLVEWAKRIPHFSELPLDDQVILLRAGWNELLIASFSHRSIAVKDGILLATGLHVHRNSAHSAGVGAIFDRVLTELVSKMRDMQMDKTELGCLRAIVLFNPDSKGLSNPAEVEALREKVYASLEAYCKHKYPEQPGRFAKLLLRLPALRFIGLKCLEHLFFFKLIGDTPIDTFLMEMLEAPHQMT

[2] = target: T2, His-TEV-RXRα-WT (223-462) (Homo sapiens (Human), UniProt P19793); experiment: SEC; RXRα^WT with addition of 9-cis-retinoic acid (Supplementary Fig. 7b); both purified
T2 chain: T1 chain with F205S

binding [1]: no binding
B1: His-TEV-RXRα-S427F (223-462) (domain or fragment, human, UniProt P19793 223-462, looked up)
chain: T1 chain
notes: S427F is a recurrent mutation found in patients' tumours; No tag cleavage is described for this preparation; also called the mutant; source: E. coli, purified (Ni-NTA, size exclusion chromatography)

B2: His-TEV-RXRα-WT (223-462) (domain or fragment, human, UniProt P19793 223-462, looked up)
chain: T1 chain with F205S
binding [2]: no binding (condition: with 9-cis-retinoic acid)
